PubChem BioAssay AID652243 | Drosophila RNAi Screening Center | 2013

- Screen: 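Knock-downs that decrease or increase androgen receptor reporter signal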 (primary screen)
- Cells: Drosophila S2R+ cells
- Reagent: long dsRNA against Drosophila genes
- Time to read-out: 72 h (48 h, then 24 h hormone)
- Treatment: synthetic androgen R1881 at 10 nM for 24 h
- Detection: 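Firefly light from an androgen-responsive reporter and Renilla control light per well, raw and unnormalised, for each of two replicates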
- Reading the numbers: firefly reporter light: higher = more light from androgen-responsive reporter; Renilla control light: higher = more constitutive control signal (cell number, transfection)
- Call rule: 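Hit when the log firefly-to-Renilla ratio dropped or increased by a fixed fold versus the mean of GFP or LacZ controls across duplicate plates; lowering cut given as 1.5 and as 3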
- Calls: active = hit: reporter lowered or raised; inactive = no hit
The screen tested about 24,000 reagents; below is an unselected part of those with a known target gene and a result. Over the whole deposit, 246 (1%) got an active call. 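Plates not normalised; calls are printed but the firefly/Renilla ratio behind them is not deposited; fold cut for lowering reported inconsistently.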 Raw values are not corrected between plates. Reagents against one gene are numbered here. Not given: the amount of reagent.

| firefly reporter light, replicate 1 | firefly reporter light, replicate 2 | Renilla control light, replicate 1 | Renilla control light, replicate 2 | Call | target gene | reagent |
| --- | --- | --- | --- | --- | --- | --- |
| 1.17e6 | 9.29e5 | 6.93e5 | 1.09e6 | inactive | wls (GeneID 39259) | 1 |
| 9.01e5 | 9.88e5 | 1.41e6 | 1.42e6 | inactive | wls (GeneID 39259) | 2 |
| 1.17e5 | 1.05e5 | 7.07e5 | 7.22e5 | inactive | Uros1 (GeneID 31817) | 1 |
| 7.14e5 | 6.73e5 | 8.54e5 | 8.54e5 | inactive | Uros1 (GeneID 31817) | 2 |
| 1.19e5 | 1.58e5 | 1.20e6 | 1.81e6 | inactive | CG1316 (GeneID 38526) | 1 |
| 2.70e5 | 2.56e5 | 1.39e6 | 1.39e6 | inactive | rnh1 (GeneID 35746) | 1 |
| 87763 | 1.06e5 | 6.42e5 | 6.67e5 | inactive | shi (GeneID 45928) | 1 |
| 6.71e5 | 6.58e5 | 1.07e6 | 1.07e6 | inactive | shi (GeneID 45928) | 2 |
| 1.46e5 | 82947 | 7.68e5 | 6.43e5 | inactive | Ser12 (GeneID 33406) | 1 |
| 3.11e5 | 2.35e5 | 3.76e6 | 2.83e6 | inactive | CG7248 (GeneID 39356) | 1 |
| 3.36e5 | 3.57e5 | 2.05e6 | 1.94e6 | inactive | blw (GeneID 37617) | 1 |
| 5.01e5 | 4.82e5 | 3.91e6 | 3.45e6 | inactive | prtp (GeneID 32124) | 1 |
| 5.50e5 | 9.06e5 | 8.36e5 | 1.15e6 | inactive | prtp (GeneID 32124) | 2 |
| 7.10e5 | 7.00e5 | 1.56e6 | 2.01e6 | inactive | CG31016 (GeneID 326113) | 1 |
| 2.12e5 | 2.45e5 | 4.02e5 | 4.05e5 | inactive | CG31016 (GeneID 326113) | 2 |
| 4.49e5 | 5.53e5 | 1.58e6 | 1.35e6 | inactive | CG5404 (GeneID 41901) | 1 |
| 5.26e5 | 5.75e5 | 5.86e5 | 6.30e5 | inactive | CG5404 (GeneID 41901) | 2 |
| 1.46e5 | 1.23e5 | 2.15e6 | 2.34e6 | inactive | nmdyn-D7 (GeneID 41174) | 1 |
| – | – | – | – | inactive | nmdyn-D7 (GeneID 41174) | 2 |
| 2.17e5 | 2.04e5 | 1.77e6 | 1.56e6 | inactive | Uro (GeneID 34060) | 1 |
| 55281 | 80629 | 1.72e5 | 24313 | inactive | lola (GeneID 44548) | 1 |
| 3.49e5 | 3.05e5 | 3.25e5 | 20970 | inactive | lola (GeneID 44548) | 2 |
| 1.08e5 | 1.52e5 | 1.66e5 | 1.53e5 | inactive | lola (GeneID 44548) | 3 |
| 42034 | 23650 | 1.21e5 | 1.60e5 | inactive | lola (GeneID 44548) | 4 |
| 1.16e5 | 1.20e5 | 4.79e5 | 2.39e5 | inactive | lola (GeneID 44548) | 5 |
| 4.23e5 | 3.51e5 | 5.34e5 | 6.13e5 | inactive | lola (GeneID 44548) | 6 |
| 9.97e5 | 1.19e6 | 1.06e6 | 1.20e6 | inactive | lola (GeneID 44548) | 7 |
| 3.30e5 | 1.43e5 | 1.37e6 | 1.08e6 | inactive | lola (GeneID 44548) | 8 |
| 1.02e6 | 9.93e5 | 1.15e6 | 1.01e6 | inactive | lola (GeneID 44548) | 9 |
| 5.41e5 | 3.59e5 | 1.85e6 | 1.73e6 | inactive | lola (GeneID 44548) | 10 |
| 6.04e5 | 4.59e5 | 1.95e6 | 1.24e6 | inactive | lola (GeneID 44548) | 11 |
| 1.63e6 | 1.22e6 | 2.08e6 | 1.87e6 | inactive | sls (GeneID 44013) | 1 |
| 83114 | 97078 | 8.94e5 | 9.51e5 | inactive | sls (GeneID 44013) | 2 |
| 47822 | 56462 | 9.67e5 | 1.12e6 | inactive | sls (GeneID 44013) | 3 |
| – | – | – | – | inactive | sls (GeneID 44013) | 4 |
| – | – | – | – | inactive | sls (GeneID 44013) | 5 |
| 80754 | 80749 | 4.19e5 | 5.02e5 | inactive | CG11374 (GeneID 33163) | 1 |
| 8.49e5 | 6.35e5 | 1.42e6 | 7.56e5 | inactive | inaF-B (GeneID 8674114) | 1 |
| 1.14e5 | 1.61e5 | 4.52e5 | 4.44e5 | inactive | sfl (GeneID 38736) | 1 |
| 1.20e5 | 1.26e5 | 4.78e5 | 4.03e5 | inactive | sfl (GeneID 38736) | 2 |
| 2.83e5 | 3.11e5 | 7.43e5 | 6.26e5 | inactive | sfl (GeneID 38736) | 3 |
| 5.96e5 | 7.11e5 | 6.43e5 | 5.71e5 | inactive | CG17361 (GeneID 39548) | 1 |
| 81744 | 90309 | 3.60e5 | 3.55e5 | inactive | Gyg (GeneID 37419) | 1 |
| 3.61e5 | 3.81e5 | 2.96e6 | 2.37e6 | inactive | Gyg (GeneID 37419) | 2 |
| 6.89e5 | 4.60e5 | 1.35e6 | 1.44e6 | inactive | Gyg (GeneID 37419) | 3 |
| 2.99e5 | 2.97e5 | 3.62e6 | 3.30e6 | inactive | CG14780 (GeneID 31102) | 1 |
| 34887 | 29038 | 7.32e5 | 7.65e5 | inactive | CG14383 (GeneID 41593) | 1 |
| 1.12e5 | 1.94e5 | 8.36e5 | 1.13e6 | inactive | CG8230 (GeneID 35897) | 1 |
| 8.69e5 | 8.31e5 | 1.07e6 | 7.45e5 | inactive | CG9008 (GeneID 34779) | 1 |
| 3.29e5 | 2.66e5 | 6.66e5 | 5.97e5 | inactive | CG9008 (GeneID 34779) | 2 |
| 2.39e5 | 1.72e5 | 1.99e6 | 1.83e6 | inactive | hgo (GeneID 34552) | 1 |
| 1.13e5 | 96240 | 6.04e5 | 8.77e5 | inactive | Rab3GAP1 (GeneID 33338) | 1 |
| 1.52e5 | 1.12e5 | 1.31e6 | 1.01e6 | inactive | Rab3GAP1 (GeneID 33338) | 2 |
| 4.74e5 | 4.54e5 | 1.00e6 | 1.17e6 | inactive | Rab3GAP1 (GeneID 33338) | 3 |
| 1.35e5 | 1.80e5 | 2.01e6 | 2.04e6 | inactive | CG15098 (GeneID 37174) | 1 |
| 8.61e5 | 7.52e5 | 9.43e5 | 9.86e5 | inactive | CG15098 (GeneID 37174) | 2 |
| 2.29e5 | 2.24e5 | 2.18e6 | 2.05e6 | inactive | CG7309 (GeneID 34509) | 1 |
| 2.45e5 | 2.37e5 | 5.05e5 | 5.76e5 | inactive | CG7309 (GeneID 34509) | 2 |
